Data taken from patent US20220073525A1, “COMPOSITIONS FOR INHIBITING UBIQUITIN SPECIFIC PROTEASE 1” (FORMA Therapeutics, Inc., priority 2019, published 2022).
Structures were worked out from names or drawings and are uncertain.

Chains of the proteins cited; added tags and fusions are not shown.
UniProt O94782, whole entry: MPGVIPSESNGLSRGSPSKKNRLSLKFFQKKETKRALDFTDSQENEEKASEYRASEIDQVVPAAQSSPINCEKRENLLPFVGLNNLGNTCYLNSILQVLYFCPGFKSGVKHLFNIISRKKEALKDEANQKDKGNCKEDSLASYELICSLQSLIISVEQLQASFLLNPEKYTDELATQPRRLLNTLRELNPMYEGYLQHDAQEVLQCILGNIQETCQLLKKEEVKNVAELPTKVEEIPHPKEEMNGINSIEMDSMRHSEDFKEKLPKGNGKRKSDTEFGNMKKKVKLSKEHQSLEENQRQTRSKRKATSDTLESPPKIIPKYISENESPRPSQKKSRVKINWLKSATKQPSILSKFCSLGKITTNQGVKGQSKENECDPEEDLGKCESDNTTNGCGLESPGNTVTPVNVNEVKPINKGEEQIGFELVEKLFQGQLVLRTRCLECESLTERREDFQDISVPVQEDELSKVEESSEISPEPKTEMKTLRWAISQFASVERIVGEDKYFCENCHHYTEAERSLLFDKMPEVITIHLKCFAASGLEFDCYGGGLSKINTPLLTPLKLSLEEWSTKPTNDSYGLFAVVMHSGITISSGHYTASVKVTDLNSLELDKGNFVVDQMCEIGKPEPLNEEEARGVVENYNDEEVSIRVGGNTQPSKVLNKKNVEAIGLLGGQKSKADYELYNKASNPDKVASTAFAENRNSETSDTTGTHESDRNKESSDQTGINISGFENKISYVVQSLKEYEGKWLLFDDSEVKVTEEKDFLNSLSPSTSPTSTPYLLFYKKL
UniProt Q8TAF3, whole entry partner: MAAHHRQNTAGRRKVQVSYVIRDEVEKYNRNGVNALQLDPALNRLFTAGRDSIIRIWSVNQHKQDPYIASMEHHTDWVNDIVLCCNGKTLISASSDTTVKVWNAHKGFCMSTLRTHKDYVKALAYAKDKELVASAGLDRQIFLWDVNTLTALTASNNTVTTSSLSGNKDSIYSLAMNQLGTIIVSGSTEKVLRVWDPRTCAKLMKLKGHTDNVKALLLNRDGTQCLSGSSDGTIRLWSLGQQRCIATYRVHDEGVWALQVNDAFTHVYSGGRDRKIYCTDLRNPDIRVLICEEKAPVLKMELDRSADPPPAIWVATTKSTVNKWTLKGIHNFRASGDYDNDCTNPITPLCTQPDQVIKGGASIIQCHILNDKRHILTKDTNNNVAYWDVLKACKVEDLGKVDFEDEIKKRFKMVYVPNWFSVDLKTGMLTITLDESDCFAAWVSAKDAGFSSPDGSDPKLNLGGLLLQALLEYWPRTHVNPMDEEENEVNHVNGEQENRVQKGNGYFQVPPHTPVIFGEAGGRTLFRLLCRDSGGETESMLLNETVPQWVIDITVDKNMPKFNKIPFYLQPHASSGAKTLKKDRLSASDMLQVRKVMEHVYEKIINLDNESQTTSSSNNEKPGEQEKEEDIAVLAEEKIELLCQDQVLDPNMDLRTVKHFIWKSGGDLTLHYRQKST

Biological target: USP1 (Homo sapiens, UniProt O94782)
Assay: Biochemical Assay for USP1 Inhibition (Ub-Rho 110 fluorescence)
Settings: Table 6, additional compounds; 30 min preincubation, Enzyme 0.025 nM, Substrate Ub-Rho 110 25 nM
Protocol: The assay was performed in a final volume of 6 μL in assay buffer containing 20 mM Tris-HCl pH 8.0, (1 M Tris-HCl, pH 8.0 solution; Corning 46-031-CM), 1 mM GSH (L-glutathione reduced, Sigma-Aldrich, G4251-100G), 0.03% BGG (0.22 μM filtered, Sigma, G7516-25G), and 0.01% Triton X-100 (Sigma, T9284-10L). Nanoliter quantities of 10-point, 3-fold serial dilution in DMSO were pre-dispensed into 1536 assay plates (Corning, #3724BC) for a final test concentration of 25 μM to 1.3 nM, top to lowest dose, respectively. Concentration and incubation times were optimized for the maximal signal-to-background while maintaining initial velocity conditions at a fixed substrate concentration (<<Km). […] Plates were read using a kinetic protocol continuously for 11 min on the Envision (Perkin Elmer) or PheraSTAR (BMG), excitation at 485 nm and emission at 535 nm or excitation at 520 nm and emission at 590 nm. For all assay formats, data were reported as percent inhibition compared with control wells based on the following equation: % inh=100*([…]), where FLU=measured Fluorescence, AveLow=average Fluorescence of no enzyme control (n=32), and AveHigh=average Fluorescence of DMSO control (n=32). IC50 values were determined by curve fitting of the standard 4 parameter logistic fitting algorithm included in the Activity Base software package: TDBS XE Designer Model205. […]

Cc1nc(-c2cccnc2C(C)C)c2n1CCN(c1ccc(-c3nc(C(F)(F)F)cn3C)cc1)CC2
IC50: 1 to 10 µM
